The values below come from the supplement of paper PMC8256030.

SMILES strings stand for the structures. “And” between values parts separate entries of the source, which are not always exact repeats. Equal entries are not always repeated. Some of the results follow. This data set is noisy: repeats of one test often differ as much as different tests do.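 HEK293T cells were given each compound shortly before transfection with a reporter in which red mCherry is followed by the SARS-CoV-2 frameshift element and then GFP in the −1 frame, so GFP appears only after frameshifting.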

This test deals with SARS-CoV-2 -1 PRF reporter mCherry-FSE-GFP(-1). Briefly: mCherry (red) intensity as percent of control; higher = higher upstream reporter expression. To be noted: 10 µM; 24 h; HEK293T.
`CCN1CCC[C@H]1CNC(=O)c1cc(S(N)(=O)=O)ccc1OC` [levosulpiride]: the mCherry is 102%.
The molecule `Nc1ccc(S(=O)(=O)Nc2ccccc2)cc1` [sulfabenz] came in with a mCherry of 128%.
To `COc1cc(C(=O)OCCCN2CCCN(CCCOC(=O)c3cc(OC)c(OC)c(OC)c3)CC2)cc(OC)c1OC` [dilazep] belongs 43.7%.
To `NCc1ccccc1CC(=O)N[C@@H]1C(=O)N2C(C(=O)O)=C(CSc3nnnn3CC(=O)O)CS[C@H]12` belongs 108%; to `CCN(CC)CCOC1(c2ccc(Cl)cc2)CCCCC1` [clofenciclan], 72.3%.
To `C=Cc1cc(O)cc2nc(-c3ccc(O)c(F)c3)oc12` [prinaberel] belongs 65.7%; to `C[C@@H]1C[C@H]2[C@@H]3C[C@H](F)C4=CC(=O)C=C[C@]4(C)[C@H]3[C@@H](O)C[C@]2(C)[C@H]1C(=O)CO` [fluocortolone], 65.3%; to `N[C@@H](Cc1c[nH]c2ccccc12)C(=O)O` [tryptophan], 94.6% and 72.1%.
In turn, `CCC(CC)[C@H](NC(C)=O)[C@@H]1[C@H](O)[C@@H](C(=O)O)C[C@H]1NC(=N)N` [Peramivir] registered a mCherry of 81.7%.
To `OC(CN1CCC(Cc2ccc(F)cc2)CC1)c1ccc(Cl)cc1` (stereo not drawn) [eliprodil] belongs 94.9%; to `COc1ccccc1OCC(O)COC(N)=O` (stereo not drawn) [methocarbamol], 90.3%; to `Cc1nnc(NS(=O)(=O)c2ccc(N)cc2)s1` [sulfamethizole], 110%.
To `CC(=O)C(=Cc1cc(O)c(O)c([N+](=O)[O-])c1)C(C)=O` [nitecapone] belongs 80.6%; to `Cc1cc(C(=O)NNCc2ccccc2)no1` [isocarboxazid], 102%; to `Nc1ccc(C(=O)Oc2ccccc2)c(O)c1` [fenamisal], 104%.
To `COC(=O)[C@H](c1ccccc1Cl)N1CCc2sccc2C1` [clopidogrel] belongs 89.4% and 105%.
Consider `CO[C@H]1C[C@H](O[C@@H]2/C(C)=C\C[C@@H]3C[C@@H](C[C@]4(C=C[C@H](C)[C@@H](C(C)C)O4)O3)OC(=O)[C@@H]3C=C(C)[C@@H](O)[C@H]4OC/C(=C/C=C\[C@@H]2C)[C@]43O)O[C@@H](C)[C@H]1O[C@H]1C[C@@H](OC)[C@H](NC(C)=O)[C@H](C)O1` [eprinomectin], for which the mCherry came out at 89.2%.
To `CCCSS/C(CCO)=C(/C)N(C=O)Cc1cnc(C)nc1N` [prosultiamine] belongs 95.5%.
To `COC(=O)CCC(=O)CN` [Metvixia] belongs 112%.
To `CCCCC(=O)O[C@H]1CC[C@H]2[C@@H]3CCc4cc(O)ccc4[C@H]3CC[C@]12C` [estradiol valerate] belongs 141%; to `Cc1cc2c(s1)Nc1ccc(F)cc1N=C2N1CCN(C)CC1` [flumezapine], 68.7%; to `CCOC(=O)OC(C)OC(=O)[C@@H]1N2C(=O)[C@@H](NC(=O)[C@H](N)c3ccccc3)[C@H]2SC1(C)C` (stereo partly drawn), 127%.
Take `CC(C)N(CCC(CCN1CCCCC1)(C(N)=O)c1ccccc1Cl)C(C)C` (stereo not drawn) [disobutamide]: the mCherry came to 78%.
To `CO[C@H]1/C=C/O[C@@]2(C)Oc3c(C)c(O)c4c(O)c(c(/C=N/N5CCN(C)CC5)c(O)c4c3C2=O)NC(=O)/C(C)=C\C=C\[C@H](C)[C@H](O)[C@@H](C)[C@@H](O)[C@@H](C)[C@H](OC(C)=O)[C@@H]1C` [Rifadin] belongs 110%.
To `C[N+](C)(C)CCOP(=O)(O)OP(=O)([O-])OC[C@H]1O[C@@H](n2ccc(N)nc2=O)[C@H](O)[C@@H]1O` belongs 118%; to `CCCCCC(C)NCc1c(C)cc(C)cc1C` (stereo not drawn) [trimexiline], 135%; to `Nc1nc(=O)[nH]cc1F` [flucytosine], 108%.
To `NCCNCCNCCN` belongs 127%.
As to `CC(C)=CCC/C(C)=C/CC/C(C)=C/C=C/C(C)=C/C(=O)O` [peretinoin], the mCherry turned out to be 101%.
To `CC1(C)S[C@@H]2[C@H](/N=C/N3CCCCCC3)C(=O)N2[C@H]1C(=O)O` [mecillinam] belongs 92%; to `CCN1CCN(C(=O)N[C@@H](C(=O)N[C@@H]2C(=O)N3C(C(=O)O)=C(CSc4nnnn4C)CS[C@H]23)c2ccc(O)cc2)C(=O)C1=O` [Cefobid], 96.3% and 108%.
Consider `CC(OCCN1CCCCCC1)(c1ccccc1)c1ccc(Cl)cc1` (stereo not drawn) [setastine], for which the mCherry came out at 120%.
To `CC[C@@H]1/C=C(\C)C[C@H](C)C[C@H](OC)[C@H]2O[C@@](O)(C(=O)C(=O)N3CCCC[C@H]3C(=O)O[C@H](/C(C)=C/[C@@H]3CC[C@H](Cl)[C@H](OC)C3)[C@H](C)[C@@H](O)CC1=O)[C@H](C)C[C@@H]2OC` [Pimecrolimus] belongs 95.6%.
